What all share (assay): affinity purification with mass spectrometry; one-step StrepTactin affinity purification of the StHA-tagged bait from lysates of tetracycline-induced HEK293 cells (lysis buffer with 2 µM avidin), elution with 2.5 mM d-desthiobiotin, biological triplicates, filtered against the HASt-GFP control
Assay [1] addresses USP16(C205S)-StHA (human) (UniProt Q9Y5T5).
Another assay has as its target USP16(WT)-StHA (human) (UniProt Q9Y5T5).
The next assay addresses T1, RIOK1(kd)-StHA (human) (UniProt Q9BRS2).
T1 sequence: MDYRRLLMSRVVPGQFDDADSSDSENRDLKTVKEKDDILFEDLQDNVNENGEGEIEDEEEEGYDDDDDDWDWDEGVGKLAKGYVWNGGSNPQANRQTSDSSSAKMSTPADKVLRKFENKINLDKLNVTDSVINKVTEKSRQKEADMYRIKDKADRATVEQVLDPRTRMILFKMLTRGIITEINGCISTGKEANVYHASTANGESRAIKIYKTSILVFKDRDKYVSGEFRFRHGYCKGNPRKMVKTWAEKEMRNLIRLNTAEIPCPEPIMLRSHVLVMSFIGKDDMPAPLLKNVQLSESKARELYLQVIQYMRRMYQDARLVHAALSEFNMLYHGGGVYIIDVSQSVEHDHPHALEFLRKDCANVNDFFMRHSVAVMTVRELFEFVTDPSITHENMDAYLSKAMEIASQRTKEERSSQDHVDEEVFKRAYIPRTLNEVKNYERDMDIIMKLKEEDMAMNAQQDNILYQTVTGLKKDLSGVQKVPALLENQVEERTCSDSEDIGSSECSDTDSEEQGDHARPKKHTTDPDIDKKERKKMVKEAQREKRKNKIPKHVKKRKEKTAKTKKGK

By UniProt entry, the sequences of proteins in these tests, tags left out.
UniProt Q9NRX1: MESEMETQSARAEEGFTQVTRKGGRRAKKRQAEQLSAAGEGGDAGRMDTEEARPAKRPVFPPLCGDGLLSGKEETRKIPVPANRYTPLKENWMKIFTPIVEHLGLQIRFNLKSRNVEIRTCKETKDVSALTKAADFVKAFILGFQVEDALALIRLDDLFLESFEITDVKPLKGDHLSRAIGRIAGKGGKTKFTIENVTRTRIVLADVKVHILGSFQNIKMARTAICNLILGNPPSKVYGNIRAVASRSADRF
UniProt Q13283: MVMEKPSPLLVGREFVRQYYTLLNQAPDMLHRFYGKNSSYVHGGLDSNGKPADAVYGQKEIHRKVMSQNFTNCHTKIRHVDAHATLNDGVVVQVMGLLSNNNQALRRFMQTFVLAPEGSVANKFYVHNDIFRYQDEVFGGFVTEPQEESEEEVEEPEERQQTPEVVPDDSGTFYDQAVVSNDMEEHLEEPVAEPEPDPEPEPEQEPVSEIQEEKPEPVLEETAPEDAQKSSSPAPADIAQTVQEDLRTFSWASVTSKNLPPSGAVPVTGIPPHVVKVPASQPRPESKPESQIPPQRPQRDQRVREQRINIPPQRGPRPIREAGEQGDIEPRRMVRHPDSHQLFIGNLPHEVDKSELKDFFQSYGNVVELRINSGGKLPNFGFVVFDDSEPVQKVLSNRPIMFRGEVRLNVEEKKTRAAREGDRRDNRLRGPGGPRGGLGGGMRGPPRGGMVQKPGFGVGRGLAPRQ

No constants are given. Whether binding was seen depends on the method and setting. In cells and extracts the contact can be indirect. These calls come from enrichment with a bait or labelling near it, and not all partners need be listed.

For the substance DIM2 (from UniProt Q9NRX1 1-252), the binding result (in assay [1]; in the assay with USP16(WT)-StHA (human); with RIOK1(kd)-StHA (human)) was “binds” in each case.

Take G3BP1 (from UniProt Q13283 1-466): the binding entry in the assay with RIOK1(kd)-StHA (human) was “binds”.

Take NOG2 (from UniProt Q13823 1-731): the binding entry (in assay [1]; with USP16(WT)-StHA (human)) was “binds weakly” throughout.

“USP16 (from UniProt Q9Y5T5 1-823) (enzyme)”: the binding entry with RIOK1(kd)-StHA (human) is on record as “binds”.
